For this assay, the system named is C57BL/6 mice, intracerebral ependymoblastoma, median survival T/C. Briefly: NCI In Vivo Anticancer Drug Screen. Data for tumor model Ependymoblastoma (intracerebral) in C57BL/6 mice. To be noted: T/C endpoint: median survival time, higher T/C = longer survival. Here is the method:
The antitumor activity of compounds was measured in mice bearing transplantable tumors. Survival or tumor size were measured and the results are expressed as the measurement made in the treated group (T) divided by the measurement made in the vehicle treated control group (C). The tumor model used in this assay is Ependymoblastoma (intracerebral) in C57BL/6 mice

The mark [1] stands for this setting: dose: 128.0 mg/kg/injection, schedule: Q01DX005 (ip), vehicle: saline.
Where [2] appears, read: dose: 32.0 mg/kg/injection, schedule: Q01DX005 (ip), vehicle: saline with Tween-80.
Where [3] appears, read: dose: 64.0 mg/kg/injection, schedule: Q01DX005 (ip), vehicle: saline with Tween-80.
The mark [4] stands for this setting: dose: 256.0 mg/kg/injection, schedule: Q01DX005 (ip), vehicle: saline with Tween-80.
Setting [5] is: dose: 256.0 mg/kg/injection, schedule: Q01DX005 (ip), vehicle: saline.

The list does not hold the whole screen: it gathers tests that were run many times, whatever their T/C, doses with no T/C, and many T/C values between a quarter and a half above the control. Other doses and runs of a compound stand elsewhere. T/C: endpoint of the treated group in % of that of the vehicle group. Some entries give survivors of the animals treated and no T/C: the source holds a T/C of zero for them, seemingly a mark for toxic or unscored doses. Some survivor counts are full or nearly so, which does not show that the dose was tolerated: survival well below the control is almost never listed, so the zero probably covers shortened survival too. Survivors were counted at the toxicity check, usually on the fifth day, unless a day is given; later deaths do not show. Schedules are NCI's codes, read here as Q, the interval in days (D) or hours (H), X, the number of doses. Some entries were tested several times; the values are given in rising order. For survival time, this PubChem deposit counts one and a half times the control or more as active, and values a quarter to a half above the control carry no call in these data; other NCI protocols may use other cut-offs. Some T/C values are followed by the survivors on the day toxicity was checked, most often the fifth; without a count, all were alive then. Brackets with × say how often a value occurs here.

With `CCN(CC)CCOc1ccc(/C(=C(\Cl)c2ccccc2)c2ccccc2)cc1`, the T/C runs as follows: (dose: 8.0 mg/kg/injection, schedule: Q01DX005 (ip), vehicle: saline) 97 [9 of 10 alive], 102 (2×), 108, 123 % of control; (dose: 16.0 mg/kg/injection, schedule: Q01DX005 (ip), vehicle: saline) 94, 97 [9 of 10 alive], 102, 106, 118 % of control; (dose: 32.0 mg/kg/injection, schedule: Q01DX005 (ip), vehicle: saline) 88, 98, 102, 104, 106 % of control; (dose: 64.0 mg/kg/injection, schedule: Q01DX005 (ip), vehicle: saline) 93 [7 of 10 alive], 96, 104, 113, 119 % of control. The survivor count (dose: 128.0 mg/kg/injection, schedule: Q01DX005 (ip), vehicle: Klucel (hydroxypropylcellulose) (HPC)) is 1 of 10 and 3 of 10; the survivor count under setting [1] was 0 of 10, 6 of 10, 7 of 10, 10 of 10; the survivor count (dose: 256.0 mg/kg/injection, schedule: Q01DX005 (oral), vehicle: Klucel (hydroxypropylcellulose) (HPC)) is 10 of 10; the survivor count (dose: 512.0 mg/kg/injection, schedule: Q01DX005 (oral), vehicle: Klucel (hydroxypropylcellulose) (HPC)) is recorded as 9 of 10.
In the case of `NC(C/[N+]([O-])=N/O)C(=O)O` (centres undefined), the survivor count is 9 of 10 (dose: 16.0 mg/kg/injection, schedule: Q01DX005 (ip), vehicle: saline with Tween-80); 10 of 10 under setting [2]; 9 of 10 under setting [3]; 6 of 10 (dose: 100.0 mg/kg/injection, schedule: Q01DX009 (ip), vehicle: Klucel (hydroxypropylcellulose) (HPC)); 8 of 10 (dose: 112.0 mg/kg/injection, schedule: Q01DX005 (ip), vehicle: saline); 3 of 10 and 6 of 10 (dose: 112.5 mg/kg/injection, schedule: Q01DX005 (ip), vehicle: saline). The survivor count (dose: 128.0 mg/kg/injection, schedule: Q01DX005 (ip), vehicle: saline with Tween-80) was 9 of 10; the survivor count (dose: 200.0 mg/kg/injection, schedule: Q01DX009 (ip), vehicle: Klucel (hydroxypropylcellulose) (HPC)) was 8 of 10; the survivor count (dose: 225.0 mg/kg/injection, schedule: Q01DX005 (ip), vehicle: saline) was 1 of 10 and 2 of 10; the survivor count under setting [4] was 6 of 10; the survivor count (dose: 400.0 mg/kg/injection, schedule: Q01DX009 (ip), vehicle: Klucel (hydroxypropylcellulose) (HPC)) was 0 of 10; the survivor count (dose: 450.0 mg/kg/injection, schedule: Q01DX005 (ip), vehicle: saline) is 2 of 10 and 3 of 10. In addition, the survivor count runs as follows: (dose: 800.0 mg/kg/injection, schedule: Q01DX009 (ip), vehicle: Klucel (hydroxypropylcellulose) (HPC)) 0 of 10; (dose: 900.0 mg/kg/injection, schedule: Q01DX005 (ip), vehicle: saline) 0 of 10; (dose: 1800.0 mg/kg/injection, schedule: Q01DX005 (ip), vehicle: saline) 1 of 10. Besides, the T/C (dose: 28.0 mg/kg/injection, schedule: Q01DX005 (ip), vehicle: saline) was 125 % of control.
Consider `C[C@@H](CN1CC(=O)NC(=O)C1)N1CC(=O)NC(=O)C1`, for which the survivor count (dose: 4.0 mg/kg/injection, schedule: Q01DX005 (ip), vehicle: other) is 10 of 10; the survivor count (dose: 16.0 mg/kg/injection, schedule: Q01DX005 (ip), vehicle: other) is recorded as 10 of 10; the survivor count (dose: 64.0 mg/kg/injection, schedule: Q01DX005 (ip), vehicle: other) is 10 of 10; the survivor count under setting [1] is 10 of 10; the survivor count (dose: 256.0 mg/kg/injection, schedule: Q01DX005 (ip), vehicle: Klucel (hydroxypropylcellulose) (HPC)) is 9 of 10 and 10 of 10; the survivor count (dose: 256.0 mg/kg/injection, schedule: Q01DX005 (ip), vehicle: other) is listed as 10 of 10. For the same molecule, the survivor count under setting [5] was 9 of 10 and 10 of 10; the survivor count (dose: 256.0 mg/kg/injection, schedule: Q01DX005 (ip), vehicle: water) is 10 of 10; the survivor count (dose: 512.0 mg/kg/injection, schedule: Q01DX005 (ip), vehicle: saline) is 9 of 10 and 10 of 10; the survivor count (dose: 1024.0 mg/kg/injection, schedule: Q01DX005 (ip), vehicle: Klucel (hydroxypropylcellulose) (HPC)) is 2 of 10, 9 of 10, 10 of 10; the survivor count (dose: 1024.0 mg/kg/injection, schedule: Q01DX005 (ip), vehicle: other) is 10 of 10. Also, the T/C (dose: 64.0 mg/kg/injection, schedule: Q01DX005 (ip), vehicle: Klucel (hydroxypropylcellulose) (HPC)) was 126 % of control.
Take `COc1ccc2c(c1OC(C)=O)-c1cc(O)cc3c1C(C2)N(C(=O)CN(CCCl)CCCl)CC3` (centres undefined): the survivor count (dose: 100.0 mg/kg/injection, schedule: Q04DX003 (ip), vehicle: saline) is 10 of 10.
Take `CCN(CC)CCCC(C)Nc1c2ccc(Cl)cc2nc2ccc(OC)cc12` (centres undefined): the survivor count reads like this: under setting [1], 9 of 10; under setting [4], 5 of 10; under setting [5], 0 of 10; (dose: 512.0 mg/kg/injection, schedule: Q01DX005 (ip), vehicle: saline with Tween-80) 0 of 10.
As for `COc1ccc2c(c1O)-c1cc(O)cc3c1C(C2)N(CCCl)CC3` (centres undefined), the survivor count (dose: 8.0 mg/kg/injection, schedule: Q01DX005 (ip), vehicle: saline with Tween-80) is 10 of 10; the survivor count under setting [2] is given as 8 of 10; the survivor count under setting [3] is 0 of 10 and 1 of 10.

Source of the values: PubChem BioAssay AID222 (DTP/NCI, 2004).
